Measurements reported in PubChem BioAssay AID1053208 (Peter MacCallum Cancer Centre, 2014).

Screen: 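Genes whose silencing cuts survival of bone tumour cells only with doxorubicin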 (primary screen)
Cells: mouse osteosarcoma cells, early-passage culture from an engineered mouse model of fibroblastic bone tumour
Knock-down reagent: siRNA pool against mouse genes, 40 nM
Time to read-out: about 120 h (48 h before drug, then 72 h with drug)
Conditions: doxorubicin 100 nM for 72 h, roughly 30-40% inhibitory dose
Read-out: 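Viability read as ATP luminescence after 72 h of 100 nM doxorubicin or none, duplicate wells averaged, scaled to non-targeting siRNA, then expressed as robust z-scores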
Scale: viability z-score with doxorubicin: higher = more viable cells under doxorubicin; viability z-score without drug: higher = more viable cells with knock-down alone
Call rule: 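a pool counts as active when its viability z-score with doxorubicin is -2 or below and its z-score without drug lies between -2 and 2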
In all, the deposit lists about 17,000 reagents; below is an unselected part. Of all reagents, 788 (4.7%) got an active call. 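Calls rest on z-score classes alone; an extra cut-off of viability at most 70% of control was not applied to them.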 Further read-outs or replicates are left out here. Reagent sequences are not shown.

gene | combined z-score class | viability z-score with doxorubicin | viability z-score without drug | outcome
Ceacam9 | low cell count with doxorubicin only | -2.25 | -1.52 | active
Grpel2 | no change with or without drug | 0.79 | -0.34 | inactive
Bin1 | no change with or without drug | 1.8 | 1.85 | inactive
Alyref | low cell count with doxorubicin only | -2.02 | 0 | active
Fam162a | no change with or without drug | -0.67 | 1.18 | inactive
Ros1 | no change with or without drug | -0.56 | 0.51 | inactive
Ablim1 | no change with or without drug | -0.22 | 1.52 | inactive
Srm | no change with or without drug | -0.22 | -1.52 | inactive
Mas1 | no change with or without drug | 0 | 1.01 | inactive
Or4c100 | no change with or without drug | -0.45 | -0.84 | inactive
Mapk9 | no change with or without drug | 1.35 | 0.17 | inactive
Tfg | no change with or without drug | 0 | 0.51 | inactive
Brd3 | no change with or without drug | 0.56 | 0.34 | inactive
Or51a39 | no change with or without drug | -0.34 | -0.84 | inactive
Mbtps1 | no change with or without drug | 0.11 | -0.34 | inactive
Noc4l | no change with or without drug | 0.11 | 1.18 | inactive
Prxl2b | high cell count without drug only | 1.24 | 2.19 | inactive
4833432B22RIK | no change with or without drug | 0.45 | -1.18 | inactive
Atp5pb | no change with or without drug | -1.35 | -1.18 | inactive
Zfp512 | no change with or without drug | -0.22 | 0.84 | inactive
Eefsec | no change with or without drug | -0.9 | -1.52 | inactive
Atg101 | no change with or without drug | -0.79 | -0.84 | inactive
Kdm4b | no change with or without drug | 0.45 | 0 | inactive
Gmip | no change with or without drug | 0.56 | -0.17 | inactive
Lce1h | high cell count with doxorubicin only | 3.48 | 1.18 | inactive
Cst5 | no change with or without drug | 0.9 | -0.34 | inactive
D930030O05Rik | no change with or without drug | -0.9 | -0.17 | inactive
Or5b104 | no change with or without drug | -0.11 | -0.51 | inactive
Srrt | no change with or without drug | 0.22 | -0.17 | inactive
Slc16a10 | no change with or without drug | 0.22 | -0.17 | inactive
Tbc1d23 | high cell count without drug only | -1.35 | 2.36 | inactive
Adra2a | no change with or without drug | 0.45 | 0 | inactive
Sp4 | no change with or without drug | 0 | 1.35 | inactive
Foxp2 | no change with or without drug | -0.11 | -0.51 | inactive

Entries above marked active, once more:
gene | combined z-score class | viability z-score with doxorubicin | viability z-score without drug | outcome
Ceacam9 | low cell count with doxorubicin only | -2.25 | -1.52 | active
Alyref | low cell count with doxorubicin only | -2.02 | 0 | active
